These are yes or no findings as the source states them, for the method shown. Binding can be weak; no strength is given. For some assays here: Binding seen in cells or lysates may run through a third protein.
What was measured:
[1] = target: hyg^r-GFP-Sbg1p (S. pombe) (UniProt O13619); assay: co-IP; solubilized membrane proteins of S. pombe strains (50 mM Tris-HCl pH 7.5, 5 mM EDTA, 200 mM NaCl, 0.5% Tween 20) immunoprecipitated with anti-GFP antibody and protein A Sepharose at 4°C; blotted with anti-HA
[2] = target: Sbg1 TMΔ (residues 1-148) (S. pombe) (UniProt O13619); assay: two-hybrid; genes or fragments in pMM5 and pMM6 plasmids, transformed into SGY37 (MATa) and YPH500 (MATalpha) yeast strains

By UniProt entry, the sequences of proteins in these tests, tags left out. Where a name states a change or a piece, a line headed by the entry shows the natural chain unless it says otherwise.
UniProt O13619: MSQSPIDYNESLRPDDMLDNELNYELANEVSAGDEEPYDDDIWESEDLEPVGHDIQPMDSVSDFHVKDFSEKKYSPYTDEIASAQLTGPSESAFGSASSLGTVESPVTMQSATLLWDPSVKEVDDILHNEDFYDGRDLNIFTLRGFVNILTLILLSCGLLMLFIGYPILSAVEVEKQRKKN
UniProt Q10287: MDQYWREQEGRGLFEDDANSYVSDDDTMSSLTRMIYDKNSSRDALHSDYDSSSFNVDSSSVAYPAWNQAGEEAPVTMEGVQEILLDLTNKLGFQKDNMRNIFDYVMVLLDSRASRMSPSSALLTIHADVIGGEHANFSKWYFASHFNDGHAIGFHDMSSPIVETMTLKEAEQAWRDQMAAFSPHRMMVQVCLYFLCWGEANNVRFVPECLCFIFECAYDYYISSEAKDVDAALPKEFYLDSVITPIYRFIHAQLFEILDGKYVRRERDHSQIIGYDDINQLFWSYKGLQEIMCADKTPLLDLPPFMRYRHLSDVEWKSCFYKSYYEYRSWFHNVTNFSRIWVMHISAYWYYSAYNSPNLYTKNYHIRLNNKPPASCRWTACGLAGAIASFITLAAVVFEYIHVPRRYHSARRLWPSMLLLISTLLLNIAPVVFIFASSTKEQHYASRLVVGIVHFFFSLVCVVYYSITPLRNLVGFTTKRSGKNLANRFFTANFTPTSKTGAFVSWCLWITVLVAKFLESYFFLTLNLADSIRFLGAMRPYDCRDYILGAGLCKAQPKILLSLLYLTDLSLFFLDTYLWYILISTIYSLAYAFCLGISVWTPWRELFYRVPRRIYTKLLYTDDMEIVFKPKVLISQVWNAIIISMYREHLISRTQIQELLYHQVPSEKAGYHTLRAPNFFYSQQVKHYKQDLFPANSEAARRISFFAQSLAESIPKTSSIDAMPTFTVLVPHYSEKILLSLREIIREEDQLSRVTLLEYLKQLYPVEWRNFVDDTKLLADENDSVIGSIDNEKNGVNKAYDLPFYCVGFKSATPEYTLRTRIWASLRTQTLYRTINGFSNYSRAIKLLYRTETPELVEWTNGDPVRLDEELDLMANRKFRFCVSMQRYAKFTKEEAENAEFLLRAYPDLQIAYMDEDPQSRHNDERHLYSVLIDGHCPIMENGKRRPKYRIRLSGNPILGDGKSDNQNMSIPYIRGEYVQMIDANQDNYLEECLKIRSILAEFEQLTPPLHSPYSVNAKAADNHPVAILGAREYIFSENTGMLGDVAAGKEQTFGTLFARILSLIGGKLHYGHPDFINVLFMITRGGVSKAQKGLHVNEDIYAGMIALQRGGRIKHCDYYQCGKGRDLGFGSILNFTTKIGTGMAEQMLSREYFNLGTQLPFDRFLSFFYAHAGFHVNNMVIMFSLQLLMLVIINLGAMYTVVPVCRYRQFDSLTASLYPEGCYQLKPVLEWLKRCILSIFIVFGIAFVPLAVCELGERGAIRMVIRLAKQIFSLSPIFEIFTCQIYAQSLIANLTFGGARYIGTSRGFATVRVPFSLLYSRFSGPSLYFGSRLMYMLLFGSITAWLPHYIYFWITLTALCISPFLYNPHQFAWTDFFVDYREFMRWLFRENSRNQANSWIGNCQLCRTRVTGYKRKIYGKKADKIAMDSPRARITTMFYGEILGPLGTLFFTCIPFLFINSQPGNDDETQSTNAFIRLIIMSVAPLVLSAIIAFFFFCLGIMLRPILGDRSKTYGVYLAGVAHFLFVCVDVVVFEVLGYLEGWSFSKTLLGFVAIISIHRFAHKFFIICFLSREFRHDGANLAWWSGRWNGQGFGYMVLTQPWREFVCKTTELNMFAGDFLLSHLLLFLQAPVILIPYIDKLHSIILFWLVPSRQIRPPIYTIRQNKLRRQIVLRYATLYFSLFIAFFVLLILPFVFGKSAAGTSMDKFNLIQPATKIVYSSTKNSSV

Row | Molecule | binding [1] | binding [2]
1 | HA-Bgs1p (from UniProt Q10287 1-1729) | binds | 
2 | Rga7p (protein, UniProt O94466 1-695) MLSAPSSSTTPASPPTSPPNTTSSDDFAVLKEPKVEAILNSELGLAILNDRIKDYLLTCKELAGFFKKRSILEEESGKNLQKLAKSYLETFQSKHHSPQSFSASVITSMEIHEQLANHSLTLQKTLSAFSDQVIEFHKNAERKRKSIKEYAKKQENAYLEAVMQMDKSKSRFKGAETEYNRALDNKNTGDSQKKVGFFKPKSNAQLTKLEDEARLKAENAESDMHSKIENAQNVQKQLLCIHRPNYIKQFFSLQREIESSLIANYLRYTKLCESNTLLNGLTIRPQKPTPTNCGLQHALDNINANTDFVQYVLHASIKHEDNKNPTDASKTKIIQPPSSYGTGSSAGKTNPPVNPTIKVTAAIPSPLQNTNPAPSTFPNPSVASPAFPNSSTSNPSTAPASASPLASTLKPSTANDTNGSSSSSSSNPRTSSPLASNAENKPPVAQQSPPVLLPTLPPIQTTTIQTSREVAPPPSSINSNRAASPFRPTSVSPQPSSPTKSLLFGARLDAIILREHSNIPNIVMQCTSQVENFGLNLQGIYRVPSSSARVNMLRSQFENNPLLQLHTPEDYENDVHAVADLLKIFFRELREPLIPDNHQRDFIDAGNVEDESRRRDAVHRAINDLPDANYSTIRHLTIHLAKIKENSDVNKMSTNNLAIIWGPTIIKQATIPEISSFSRTIEILIDYCFTIFDYD |  | binds
3 | Imp2p (protein, UniProt Q10199 1-670) MSQQLSFNASSAKPDKSFSNYFWGANDEGYHALLSRFSDVKHINEELRSFYHERANIEEDYAKRMAKLSRTTFSSLETGCLKESVQVMKAEVDNMAKSHLQISQLLQDDVENAFTRYAASLKDKKKMIVSGIEKVHKDKLSKHQALVKAQDKYHYLCKKVNYYVSQQNMLFGKELEKNNAKLNKTQNAITASSSDYQSAVAAVRDSYARWTNEWRSTCDKLQDIEEERRHFLKSVMWTFTLLISRSCFNDDQACERIRKNLEQCSVSQDVLEFIDAKSTGTGIPQPPKFYDYYKGEVPDDSVELVQANFQRAQTKIENDNMPLNRPYVLSATARNESSFENTLPNTPSAIQSLTTVSSNSSQNGRSSPKKSFLSKFKLTSRPSTPNVGNTAPDALSSPRNDSPLTSAADEQMKHLSLQEEPKQNPTPAAPGAFPNSNTLPPRYNELGSLPSPNSVSFTEDSRPNVNTPSRRQQIQEEFGSVLQMENRAVSPVYDSRKNGSRSSFTLRKSRSPKRPSSSLSQNASRLPRSLTPGNLEPNYDFGVRVDPASGTAPTDDEPYTDRDSSFVDDTINTKATGNTSNRLSLPAYPTDGGDTSIDNPTSTDGQRILGYVSALYDYDAAIPEEISFRKGDTIAVLKLYEDGWWEGFVVGEDDHNRGQFPSNFVREIEV |  | binds
4 | Cdc15p (protein, UniProt Q09822 1-927) MEVNGVSQSEAAPYVTKSSVKFRDNFWGSEDAGMDALMSRTKSSLSVLESIDEFYAKRASIEREYASKLQELAASSADIPEVGSTLNNILSMRTETGSMAKAHEEVSQQINTELRNKIREYIDQTEQQKVVAANAIEELYQKKTALEIDLSEKKDAYEYSCNKLNSYMRQTKKMTGRELDKYNLKIRQAALAVKKMDAEYRETNELLLTVTREWIDRWTEVCDAFQHIEEYRLEFLKTNMWAYANIISTACVKDDESCEKIRLTLENTNIDEDITQMIQNEGTGTTIPPLPEFNDYFKENGLNYDIDQLISKAPSYPYSSSRPSASASLASSPTRSAFRPKTSETVSSEVVSSPPTSPLHSPVKPVSNEQVEQVTEVELSIPVPSIQEAESQKPVLTGSSMRRPSVTSPTFEVAARPLTSMDVRSSHNAETEVQAIPAATDISPEVKEGKNSENAITKDNDDIILSSQLQPTATGSRSSRLSFSRHGHGSQTSLGSIKRKSIMERMGRPTSPFMGSSFSNMGSRSTSPTKEGFASNQHATGASVQSDELEDIDPRANVVLNVGPNMLSVGEAPVESTSKEEDKDVPDPIANAMAELSSSMRRRQSTSVDDEAPVSLSKTSSSTRLNGLGYHSRNTSIASDIDGVPKKSTLGAPPAAHTSAQMQRMSNSFASQTKQVFGEQRTENSARESLRHSRSNMSRSPSPMLSRRSSTLRPSFERSASSLSVRQSDVVSPAPSTRARGQSVSGQQRPSSSMSLYGEYNKSQPQLSMQRSVSPNPLGPNRRSSSVLQSQKSTSSNTSNRNNGGYSGSRPSSEMGHRYGSMSGRSMRQVSQRSTSRARSPEPTNRNSVQSKNVDPRATFTAEGEPILGYVIALYDYQAQIPEEISFQKGDTLMVLRTQEDGWWDGEIINVPNSKRGLFPSNFVQTV |  | binds
5 | Fic1p (protein, UniProt O94701 1-272) MSKNPLGTLVVRIWKAKNLPNKALVGKQSPYCVCRVGEVVKRTQTDKRSGQEPSWNAVLEFNIPSESYHIMKITVFHEGFRKHPHLIGDTVLSFEKAMKEELQSEWYELKNEFQFAGELSVQFKFIPTDPLYFDRASSKPVLQFPYSSVAALTPVPKKPSKPSKPRKKVPVSHPLPPTPPSREEHVSVPRESSLFTYEDDPLPSFPSPYMVDDYYTQDVFVSDNVNDYSYGVQNPTNPRLSVEDYDANHSSLPPVPPPHLILPTASSSQIFH |  | no binding

Reference: article PMC5066963
